Experimental data: PubChem BioAssay AID504764 (Drosophila RNAi Screening Center, 2011)

Purpose: 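Genome-wide screen for regulators of Notch-driven gene expression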 (primary screen)
Cell system: Drosophila Kc167 cells
Knock-down reagent: long dsRNA against Drosophila genes
Duration: about 5 days (4 days dsRNA, then 24 h after transfection)
Challenge: transfection of constitutively active membrane-tethered Notch lacking the extracellular domain, read 24 h later
Measurement: 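Light from a Notch-responsive E(spl)m3 luciferase reporter under active Notch, with control-promoter and no-Notch reporter wells to normalise; raw counts from paired wells a and b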
Reading the numbers: induced reporter light, run 1, well a and induced reporter light, run 1, well b: higher = more light from the Notch target reporter with active Notch; control promoter light, run 1, well a and control promoter light, run 1, well b: higher = more light from the viral control promoter (cell number, transfection, viability); uninduced reporter light, run 1, well a: higher = more light from the Notch target reporter without active Notch
Rule for the call: 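Hit if the duplicate-averaged log2 ratio of induced to control-promoter light gives a plate-wise z beyond ±2, or induced to uninduced beyond ±1.8; weak-control or discordant-duplicate wells dropped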
Meaning of the calls: active = modifier hit (raised or lowered Notch signal); inactive = not a hit
In all, the deposit lists about 22,000 reagents; this is a random part of those that have a named target and a result. In the full data, 403 (1.9%) are marked active. 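Unnormalised raw counts per well; ratio z-scores behind the hit calls and whether each hit raises or lowers signal are not deposited.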 The numbers tell different reagents against one gene apart. Names joined by + are all predicted targets of the reagent. The record does not give: the amount of reagent.

| Gene | dsRNA no. | induced reporter light, run 1, well a | induced reporter light, run 1, well b | control promoter light, run 1, well a | control promoter light, run 1, well b | uninduced reporter light, run 1, well a | outcome |
| --- | --- | --- | --- | --- | --- | --- | --- |
| CG12522 | 1 | 1.35e5 | 1.47e5 | 1.74e5 | 1.55e5 | 9415 | inactive |
| CG11155 | 1 | 61875 | 59225 | 63310 | 71610 | 5170 | inactive |
| CG11155 | 2 | 1.89e5 | 1.75e5 | 1.96e5 | 2.16e5 | 10345 | inactive |
| Tsp74F | 1 | 1.77e5 | 1.58e5 | 2.01e5 | 2.37e5 | 7828 | inactive |
| oc | 1 | 1.17e5 | 1.34e5 | 2.18e5 | 2.13e5 | 11800 | inactive |
| Frq1 | 1 | 43575 | 28815 | 28835 | 25090 | 4228 | inactive |
| achi | 1 | 1.10e5 | 1.23e5 | 1.32e5 | 1.41e5 | 9285 | inactive |
| CG7376 | 1 | 1.17e5 | 98585 | 65230 | 22035 | 10185 | inactive |
| CG7320 | 1 | 1.18e5 | 1.10e5 | 1.69e5 | 1.45e5 | 8865 | inactive |
| CG6503 | 1 | 1.42e5 | 1.27e5 | 1.83e5 | 1.85e5 | 12055 | inactive |
| PPO1 | 1 | 98805 | 1.04e5 | 1.86e5 | 3.04e5 | 9495 | inactive |
| Or47a | 1 | 1.16e5 | 1.01e5 | 1.46e5 | 1.19e5 | 9978 | inactive |
| CG17030 | 1 | 2.12e5 | 1.84e5 | 2.64e5 | 2.22e5 | 10465 | inactive |
| CG13877 + pyx | 1 | 1.14e5 | 1.07e5 | 2.47e5 | 1.95e5 | 7428 | inactive |
| Sec15 | 1 | 2.11e5 | 1.68e5 | 2.05e5 | 2.15e5 | 15815 | inactive |
| Raf | 1 | 1.42e5 | 1.31e5 | 1.41e5 | 1.34e5 | 9870 | inactive |
| Polr2C | 1 | 73455 | 77200 | 58900 | 57830 | 6232 | inactive |
| CG31054 (retired record) | 1 | – | – | – | – | – | inactive |
| CG5892 | 1 | 1.96e5 | 1.85e5 | 1.87e5 | 1.93e5 | 14965 | inactive |
| snky | 1 | 1.33e5 | 1.42e5 | 2.08e5 | 1.53e5 | 8925 | inactive |
| Cyp4d14 | 1 | 94175 | 95140 | 1.67e5 | 1.64e5 | 5795 | inactive |
| Achl | 1 | 1.00e5 | 88300 | 1.24e5 | 1.34e5 | 8185 | inactive |
| CG1910 | 1 | 1.66e5 | 1.78e5 | 2.64e5 | 2.44e5 | 13585 | inactive |
| Vha13 | 1 | 1.35e5 | 1.07e5 | 1.56e5 | 1.56e5 | 8570 | inactive |
| CG3198 | 1 | 1.39e5 | 1.49e5 | 2.01e5 | 2.26e5 | 11070 | inactive |
| lolal | 1 | 1.04e5 | 1.05e5 | 1.81e5 | 1.84e5 | 7805 | inactive |
| CG31740 | 1 | 63855 | 65260 | 74905 | 54690 | 5960 | inactive |
| CG17343 | 1 | 41620 | 33240 | 33685 | 25370 | 2760 | inactive |
| CG5805 | 1 | 2.10e5 | 1.87e5 | 2.45e5 | 2.42e5 | 16515 | inactive |
| norpA | 1 | 1.31e5 | 1.48e5 | 1.86e5 | 1.87e5 | 8490 | inactive |
| l(3)04053 | 1 | 1.18e5 | 1.23e5 | 67060 | 67445 | 8930 | inactive |
| mTTF | 1 | 1.05e5 | 1.22e5 | 1.24e5 | 1.27e5 | 9940 | inactive |
| eEF2 | 1 | 4155 | 5488 | 7160 | 11100 | 292 | inactive |
| CG4789 | 1 | 25385 | 26005 | 24265 | 17325 | 2820 | inactive |
| kdn | 1 | 1.83e5 | 1.96e5 | 3.40e5 | 2.82e5 | 11870 | inactive |
| CG12826 | 1 | 1.74e5 | 1.74e5 | 1.94e5 | 1.87e5 | 12850 | inactive |
| CG13196 | 1 | 1.31e5 | 1.14e5 | 1.39e5 | 1.39e5 | 10710 | inactive |
| CG5565 | 1 | 1.27e5 | 1.18e5 | 1.13e5 | 62885 | 9855 | inactive |
| nwk | 1 | 1.96e5 | 1.52e5 | 2.08e5 | 1.86e5 | 10685 | inactive |
| CG11112 | 1 | 2.18e5 | 2.31e5 | 2.94e5 | 2.43e5 | 18245 | inactive |
| Npc2h | 1 | 1.31e5 | 1.09e5 | 1.69e5 | 1.74e5 | 10032 | inactive |
| Prosbeta2 | 1 | 39405 | 35770 | 30385 | 40925 | 3530 | inactive |
| Evi5 | 1 | 1.15e5 | 1.16e5 | 1.43e5 | 1.60e5 | 8295 | inactive |
| CG10809 | 1 | 1.80e5 | 1.35e5 | 1.80e5 | 1.63e5 | 9238 | inactive |
| haf | 1 | 1.70e5 | 1.62e5 | 1.03e5 | 55510 | 10250 | inactive |
| ac | 1 | 28090 | 26880 | 41280 | 36305 | 6535 | inactive |
| RhoGEF4 | 1 | 74815 | 85205 | 78180 | 22920 | 9245 | inactive |
| CG14566 | 1 | 1.26e5 | 1.11e5 | 1.34e5 | 95975 | 11415 | inactive |
| CG4995 | 1 | 2.24e5 | 2.03e5 | 1.75e5 | 1.76e5 | 14325 | inactive |
| Or98P | 1 | – | – | – | – | – | inactive |

Reprinted from above (8 entries):
| Gene | dsRNA no. | induced reporter light, run 1, well a | induced reporter light, run 1, well b | control promoter light, run 1, well a | control promoter light, run 1, well b | uninduced reporter light, run 1, well a | outcome |
| --- | --- | --- | --- | --- | --- | --- | --- |
| norpA | 1 | 1.31e5 | 1.48e5 | 1.86e5 | 1.87e5 | 8490 | inactive |
| l(3)04053 | 1 | 1.18e5 | 1.23e5 | 67060 | 67445 | 8930 | inactive |
| mTTF | 1 | 1.05e5 | 1.22e5 | 1.24e5 | 1.27e5 | 9940 | inactive |
| eEF2 | 1 | 4155 | 5488 | 7160 | 11100 | 292 | inactive |
| CG4789 | 1 | 25385 | 26005 | 24265 | 17325 | 2820 | inactive |
| kdn | 1 | 1.83e5 | 1.96e5 | 3.40e5 | 2.82e5 | 11870 | inactive |
| CG12826 | 1 | 1.74e5 | 1.74e5 | 1.94e5 | 1.87e5 | 12850 | inactive |
| CG13196 | 1 | 1.31e5 | 1.14e5 | 1.39e5 | 1.39e5 | 10710 | inactive |
